Measured values published in publication PMC5727187.
Results are given in words; binding and its absence hold for the method and conditions named. In cells and extracts the contact can be indirect. Some results given as binding are weak or reduced against the parent protein; the word gives no strength. Where a sequence is shown, tags or fusion partners need not be part of it.

Target: T1, BcsA^HA-FLAG (recombinant, BL21) (E. coli 1094) (UniProt P37653)
T1 sequence: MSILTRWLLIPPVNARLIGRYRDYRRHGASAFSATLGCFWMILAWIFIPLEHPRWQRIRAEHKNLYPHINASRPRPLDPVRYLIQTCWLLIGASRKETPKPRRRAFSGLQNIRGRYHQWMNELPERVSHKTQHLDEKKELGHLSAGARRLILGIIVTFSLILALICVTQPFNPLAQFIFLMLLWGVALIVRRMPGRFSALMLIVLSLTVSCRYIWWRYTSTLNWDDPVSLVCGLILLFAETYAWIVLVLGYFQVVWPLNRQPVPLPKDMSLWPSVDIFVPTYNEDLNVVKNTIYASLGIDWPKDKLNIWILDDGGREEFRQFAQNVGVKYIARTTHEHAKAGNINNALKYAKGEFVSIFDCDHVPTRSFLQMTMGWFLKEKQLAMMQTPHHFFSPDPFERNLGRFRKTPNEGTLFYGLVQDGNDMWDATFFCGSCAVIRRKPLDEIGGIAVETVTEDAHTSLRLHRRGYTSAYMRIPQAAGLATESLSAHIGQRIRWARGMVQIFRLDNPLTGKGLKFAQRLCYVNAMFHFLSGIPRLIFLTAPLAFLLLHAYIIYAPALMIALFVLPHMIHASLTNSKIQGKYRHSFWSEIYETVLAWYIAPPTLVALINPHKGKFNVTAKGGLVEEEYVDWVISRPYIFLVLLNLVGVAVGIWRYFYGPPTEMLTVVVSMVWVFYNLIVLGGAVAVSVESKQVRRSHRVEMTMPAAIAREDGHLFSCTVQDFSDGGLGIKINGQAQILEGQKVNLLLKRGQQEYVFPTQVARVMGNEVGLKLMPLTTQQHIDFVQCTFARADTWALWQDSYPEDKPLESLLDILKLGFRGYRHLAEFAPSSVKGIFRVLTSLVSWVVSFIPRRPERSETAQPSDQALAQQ
Experiment: co-IP; Anti-FLAG purification and glycerol gradient of the inner membrane subcomplex expressed in BL21 (DE3) from bcs^HisRQA^HA-FLAGB-pCDF-Duet alone (no bcsEFG); SDS-PAGE and western blot

- binding: binds
B1: BcsB (recombinant, BL21) (protein, UniProt P37652 26-779)
chain: TPATQPLINAEPAVAAQTEQNPQVGQVMPGVQGADAPVVAQNGPSRDVKLTFAQIAPPPGSMVLRGINPNGSIEFGMRSDEVVTKAMLNLEYTPSPSLLPVQSQLKVYLNDELMGVLPVTKEQLGKKTLAQMPINPLFISDFNRVRLEFVGHYQDVCEKPASTTLWLDVGRSSGLDLTYQTLNVKNDLSHFPVPFFDPSDNRTNTLPMVFAGAPDVGLQQASAIVASWFGSRSGWRGQNFPVLYNQLPDRNAIVFATNDKRPDFLRDHPAVKAPVIEMINHPQNPYVKLLVVFGRDDKDLLQAAKGIAQGNILFRGESVVVNEVKPLLPRKPYDAPNWVRTDRPVTFGELKTYEEQLQSSGLEPAAINVSLNLPPDLYLMRSTGIDMDINYRYTMPPVKDSSRMDISLNNQFLQSFNLSSKQEANRLLLRIPVLQGLLDGKTDVSIPALKLGATNQLRFDFEYMNPMPGGSVDNCITFQPVQNHVVIGDDSTIDFSKYYHFIPMPDLRAFANAGFPFSRMADLSQTITVMPKAPNEAQMETLLNTVGFIGAQTGFPAINLTVTDDGSTIQGKDADIMIIGGIPDKLKDDKQIDLLVQATESWVKTPMRQTPFPGIVPDESDRAAETRSTLTSSGAMAAVIGFQSPYNDQRSVIALLADSPRGYEMLNDAVNDSGKRATMFGSVAVIRESGINSLRVGDVYYVGHLPWFERVWYALANHPILLAVLAAISVILLAWVLWRLLRIISRRRLNPDNE
